# The supplement of paper PMC8728848
# Some of the results follow.
# B1: SUN4 (Saccharomyces cerevisiae), P53616 (protein)
# chain: MGSSHHHHHHSSGLVPRGSHNGSIYGDLADFSGPYEKFEDGTIPCGQFPSGQGVIPISWLDEGGWSGVENTDTSTGGSCKEGSYCSYACQPGMSKTQWPSDQPSDGRSIGGLLCKDGYLYRSNTDTDYLCEWGVDAAYVVSELSNDVAICRTDYPGTENMVIPTYVQAGDSLPLTVVDQDTYYTWQGLKTSAAYYVNNAGISVEDACVWGSSSSGVGNWAPLNFGAGSSDGVAYLSLIPNPNNGNALNFNVKIVAADDSSTVNGECIYENGSFSGGSDGCTVSVTAGKAKFVLYN
# Assays:
# Test in all cases: glycan array binding signal (z-score within array); higher = stronger binding
# Details in all cases: glycan notation: IUPAC condensed, linker removed; mutation: Q318A
# [1] = target: Gal(b1-4)GlcNAc(b1-2)Man(a1-3)[Gal(b1-4)GlcNAc(b1-2)Man(a1-6)]Man(b1-4)GlcNAc(b1-4)GlcNAc
# Procedure, shortened: (§1)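 The binding signal is a Z-score computed within each array and averaged over linkers. Arrays of the same protein sequence at different concentrations or buffers were also averaged together. Data originate from 3228 arrays in the Consortium for Functional Glycomics database, kept only where the protein sequence was available.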
# [2] = target: Gal(b1-4)GlcNAc(b1-2)Man(a1-3)[Gal(b1-4)GlcNAc(b1-2)Man(a1-6)]Man(b1-4)GlcNAc(b1-4)[Fuc(a1-6)]GlcNAc
# Procedure, shortened: as §1
# [3] = target: Gal(b1-4)GlcNAc(b1-2)Man(a1-3)[Gal(b1-4)GlcNAc(b1-2)Man(a1-6)][Gal(b1-4)GlcNAc(b1-4)]Man(b1-4)GlcNAc(b1-4)[Fuc(a1-6)]GlcNAc
# Procedure, shortened: as §1
# [4] = target: Gal(b1-4)GlcNAc(b1-2)Man(a1-3)[Gal(b1-4)GlcNAc(b1-2)Man(a1-6)][GlcNAc(b1-4)]Man(b1-4)GlcNAc(b1-4)[Fuc(a1-6)]GlcNAc
# Procedure, shortened: as §1
# [5] = target: Gal(b1-4)GlcNAc(b1-2)Man(a1-3)[GlcNAc(b1-2)Man(a1-6)]Man(b1-4)GlcNAc(b1-4)GlcNAc
# Procedure, shortened: as §1
# [6] = target: Gal(b1-4)GlcNAc(b1-2)Man(a1-3)[GlcNAc(b1-4)][Gal(b1-4)GlcNAc(b1-2)Man(a1-6)]Man(b1-4)GlcNAc(b1-4)GlcNAc
# Procedure, shortened: as §1
# [7] = target: Gal(b1-4)GlcNAc(b1-2)Man(a1-3)[Man(a1-6)]Man(b1-4)GlcNAc(b1-4)GlcNAc
# Procedure, shortened: as §1
# [8] = target: Gal(b1-4)GlcNAc(b1-2)Man(a1-6)Man(b1-4)GlcNAc(b1-4)GlcNAc
# Procedure, shortened: as §1
# [9] = target: Gal(b1-4)GlcNAc(b1-2)Man(a1-6)[GlcNAc(b1-2)Man(a1-3)]Man(b1-4)GlcNAc(b1-4)GlcNAc
# Procedure, shortened: as §1
# [10] = target: Gal(b1-4)GlcNAc(b1-2)Man(a1-6)[Man(a1-3)]Man(b1-4)GlcNAc(b1-4)GlcNAc
# Procedure, shortened: as §1
# [11] = target: Gal(b1-4)GlcNAc(b1-2)[Gal(b1-4)GlcNAc(b1-4)]Man(a1-3)[Gal(b1-4)GlcNAc(b1-2)Man(a1-6)]Man(b1-4)GlcNAc(b1-4)GlcNAc
# Procedure, shortened: as §1
# [12] = target: Gal(b1-4)GlcNAc(b1-2)[Gal(b1-4)GlcNAc(b1-4)]Man(a1-3)[Gal(b1-4)GlcNAc(b1-2)[Gal(b1-4)GlcNAc(b1-6)]Man(a1-6)]Man(b1-4)GlcNAc(b1-4)GlcNAc
# Procedure, shortened: as §1
# [13] = target: Gal(b1-4)GlcNAc(b1-2)[Gal(b1-4)GlcNAc(b1-4)]Man(a1-3)[GlcNAc(b1-4)][Gal(b1-4)GlcNAc(b1-2)Man(a1-6)]Man(b1-4)GlcNAc(b1-4)GlcNAc
# Procedure, shortened: as §1
# [14] = target: Gal(b1-4)GlcNAc(b1-2)[Gal(b1-4)GlcNAc(b1-4)]Man(a1-3)[GlcNAc(b1-4)][Gal(b1-4)GlcNAc(b1-2)[Gal(b1-4)GlcNAc(b1-6)]Man(a1-6)]Man(b1-4)GlcNAc(b1-4)GlcNAc
# Procedure, shortened: as §1
# [15] = target: Gal(b1-4)GlcNAc(b1-2)[Gal(b1-4)GlcNAc(b1-6)]Man(a1-6)[Gal(b1-4)GlcNAc(b1-2)Man(a1-3)]Man(b1-4)GlcNAc(b1-4)GlcNAc
# Procedure, shortened: as §1
# [16] = target: Gal(b1-4)GlcNAc(b1-2)[Gal(b1-4)GlcNAc(b1-6)]Man(a1-6)[Gal(b1-4)GlcNAc(b1-2)Man(a1-3)]Man(b1-4)GlcNAc(b1-4)[Fuc(a1-6)]GlcNAc
# Procedure, shortened: as §1
# [17] = target: Gal(b1-4)GlcNAc(b1-2)[Gal(b1-4)GlcNAc(b1-6)]Man(a1-6)[GlcNAc(b1-4)][Gal(b1-4)GlcNAc(b1-2)Man(a1-3)]Man(b1-4)GlcNAc(b1-4)GlcNAc
# Procedure, shortened: as §1
# [18] = target: Gal(b1-4)GlcNAc(b1-2)[Gal(b1-4)GlcNAc(b1-6)]Man(a1-6)[GlcNAc(b1-4)][Gal(b1-4)GlcNAc(b1-2)[Gal(b1-4)GlcNAc(b1-4)]Man(a1-3)]Man(b1-4)GlcNAc(b1-4)[Fuc(a1-6)]GlcNAc
# Procedure, shortened: as §1
# [19] = target: Gal(b1-4)GlcNAc(b1-3)Gal(b1-3)GalNAc
# Procedure, shortened: as §1
binder,measurement,setting,value
B1,glycan array binding signal (z-score),[1],-0.273
same,glycan array binding signal (z-score),[2],0.438
same,glycan array binding signal (z-score),[3],-0.336
same,glycan array binding signal (z-score),[4],-0.281
same,glycan array binding signal (z-score),[5],-0.375
same,glycan array binding signal (z-score),[6],-0.624
same,glycan array binding signal (z-score),[7],1.47
same,glycan array binding signal (z-score),[8],-0.627
same,glycan array binding signal (z-score),[9],-1
same,glycan array binding signal (z-score),[10],1.2
same,glycan array binding signal (z-score),[11],-0.386
same,glycan array binding signal (z-score),[12],-0.928
same,glycan array binding signal (z-score),[13],-0.489
same,glycan array binding signal (z-score),[14],-0.441
same,glycan array binding signal (z-score),[15],-0.011
same,glycan array binding signal (z-score),[16],0.896
same,glycan array binding signal (z-score),[17],-0.239
same,glycan array binding signal (z-score),[18],0.832
same,glycan array binding signal (z-score),[19],-0.72

# An excerpt from the list above, as a working copy:
binder,measurement,setting,value
B1,glycan array binding signal (z-score),[9],-1
same,glycan array binding signal (z-score),[10],1.2
